To fix the notation:
B1: mAbE (antibody, human IgG1, V domains shown)
VH: DVQLVESGGGLVQPGGSRKLSCAASGFTFSTFGMHWVRQAPEKGLEWVAYISSGSNAIYYADTVKGRFTISRDNPKNTLFLQMTSLRSEDTAMYYCASPGYGAWFAYWGQGTLVTVSA
VL: ENVLTQSPAIMSASPGEKVTMTCRASSSVSSAYLHWYQQKSGASPKLWIYSTSNLASGVPARFSGSGSGTSYSLTISSVEAEDAATYYCQQYSAYPYTFGGGTKLEIK
B2: mAbD (antibody, human IgG1, V domains shown)
VH: QIQLVQSGPELKKPGETVKISCKASGYTFTDYSMHWVKQAPGKGLKWMGWIITETGEPTYADDFRGRFAFSLETSANTAYLQINNLKNEDTATYFCARDFDGYWGQGTTLTVSS
VL: DILMTQSPASLSASVGETVTITCRASENIYSYLAWYQQKRGKSPQFLVYNAKTLTEGVPSRFRGSGSGTQFSLKINSLQPEDFGTYYCQHHYGFPWTFGGGTKLEIK
B3: Fab.D (Fab of mAbD) (Fab, V domains shown)
VH: B2 VH
VL: B2 VL
B4: mAbF (antibody, human IgG1, V domains shown)
VH: QVQLQQSGPEVVRPGVSVKISCKGSGYTFTDYSMHWVKQSHAKSLEWIGVISTYNGNTNYNQKFKGKATMTVDKSSSTAYMELARLTSEDSAIYYCARRGYYGSSSWFGYWGQGTLVTVSA
VL: DIVMTQSQKFMSTSVGDRVSVTCKASQNVGTDVAWYQQKPGQSPEALIYSASYRYSGVPDRFTGSGSGADFTLTISNVQSEDLAEYFCQQYNSFPYTFGGGTKLEIK
B5: mAb1 (antibody, human IgG1, V domains shown)
VH: DVQLQESGPGLVKPSQSLSLTCTVTGYSITGGFAWNWIRQFPGNTLEWMGYIGYGGSTSYNPSLNSRISITRDTSKNHFFLQFNSVTTDDSATYYCARGDYLFAYWGQGTLVTVSA
VL: DIVMTQSHKFMSTSVGDRVSITCKASQDVNTAVAWYQQKPGQSPKLLIYSASYRYTGVPDRFTGSGSGTDFTFTISSVQAEDLAVYYCQQHYSTPRTFGGGTKLEIK
B6: mAb2 (antibody, human IgG1, V domains shown)
VH: B5 VH with D1E, D89E
VL: B5 VL
B7: mAb3 (antibody, human IgG1, V domains shown)
VH: B5 VH with D1E, Q5L, S7T, D89E
VL: DILMTQSPASLSASVGETVSITCRASGNIHNYLAWYLQRQGKSPQLLVYNAKTLADGVPSRFSGTGSGTQFSLKINSLQPEDFGSYYCQHFWSTPRTFGGGTKLEIK
B8: mAbA (antibody, human IgG1, V domains shown)
VH: QVQLQQPGAELVKPGSPVKLSCKASYFTFTSYWMHWVRQRPGQGLEWIGEINPSNGHTNYNEKFESKATLTVDRSSSTAYMQLSSLTSEDSAVFYCANGVESYDFDDALDYWGQGTSVTVSS
VL: DIQMTQTTSSLSASLGDRVTISCRASQDINNYLNWYQQKPDGTIKLLIYYTSRLHSGVPSRFSGSGSGTDYSLTINNLEQEDIATYFCQQGNTLPFTFGGGTKLEIK
B9: mAbB (antibody, human IgG1, V domains shown)
VH: QVQLQQPGAELVKPGASVKLSCKASVYTFTSYWMHWVKQRPGQGLEWIGEINPSNGHTNYNEKFKTKAKLTVDKSSSTAYMQLSSLTSEDSAVYFCANGVETYDFDDAMDYWGQGTSVTVSS
VL: B8 VL with I44V, Y50F, N76S, N92D, L94F
B10: Fab.A (Fab of mAbA) (Fab, V domains shown)
VH: B8 VH
VL: B8 VL
B11: Fab.B (Fab of mAbB) (Fab, V domains shown)
VH: B9 VH
VL: B8 VL with I44V, Y50F, N76S, N92D, L94F
B12: mAbC (antibody, human IgG1, V domains shown)
VH: QIQLVQSGPELKKPGETVKISCKASGYTFTNYEMNWVKEAPGKGLKWMGWINTYTGESTYADDFKGRFAFSLETSASTVYLQINNLKDEDVATYFCVRDDYGRSYGFAYWGQGTLVTVSA
VL: NIVLTQSPASLTVSLGQRANISCRASESVDSYGNSFMHWYQQKPGQPPKLLIYLASKLESGVPARFSGSGSRTDFTLTIDPVETDDAATYYCHQNNEDPPWTFGGGTKLEIK

By UniProt entry, the sequences of proteins in these tests, tags left out. Where a name states a change or a piece, a line headed by the entry shows the natural chain unless it says otherwise.
UniProt Q9Y336: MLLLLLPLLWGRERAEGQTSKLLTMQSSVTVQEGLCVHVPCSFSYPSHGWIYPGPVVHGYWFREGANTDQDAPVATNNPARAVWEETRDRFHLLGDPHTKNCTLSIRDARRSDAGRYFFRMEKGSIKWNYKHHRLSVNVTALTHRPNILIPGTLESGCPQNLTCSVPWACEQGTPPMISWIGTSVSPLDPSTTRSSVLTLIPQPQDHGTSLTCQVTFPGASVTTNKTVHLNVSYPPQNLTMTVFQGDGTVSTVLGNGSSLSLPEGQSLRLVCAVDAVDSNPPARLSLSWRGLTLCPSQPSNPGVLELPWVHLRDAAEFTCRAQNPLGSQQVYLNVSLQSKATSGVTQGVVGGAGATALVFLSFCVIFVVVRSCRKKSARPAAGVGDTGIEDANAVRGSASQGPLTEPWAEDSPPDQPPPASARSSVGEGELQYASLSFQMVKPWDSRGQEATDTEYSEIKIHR

Where a chain is given by its changes, count along the chain named. These are yes or no findings as the source states them, for the method shown. Some binding calls cover weakened binding; strength is not graded here.

For this test, the target named is Human Siglec-9 mutant M1 (human) (UniProt Q9Y336). The test can be described thus: flow cytometry, HEK293T transfectants.
For B1, the binding result is on record as “binds”.
As for B2, the entry is “binds”.
The result for B3 reads “binds”.
The result for B4 reads “binds”; that for B5, “binds”; that for B6, “binds”.
Regarding B7, the binding result is “binds”.
As for B8, the entry is “binds”; as for B9, “binds”; as for B10, “binds”.
Take B11: the binding result is on record as “binds”.
As for B12, the entry is “binds”.

The values are drawn from patent publication US20200369765A1.
